# Assay results published in the supplement of paper PMC10735217.
# Several values for one entry are separate records, joined by “and”; a condition that tells them apart may be missing. Equal values may be shown once. Where a name gives a salt, the structure may show the parent alone. The list shows a part of the results. Single values are uncertain here, since repeats match poorly.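 The human kidney-derived cells carry a stably integrated construct of eight TEAD-binding elements driving luciferase, read by luminescence in a drug-repurposing library screen. A compound counts as a hit when its signal is more than five robust Z scores above the plate mean.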
# System: HEK293A TEAD-LUC reporter
# Test: TEAD-luciferase reporter activity (YAP activation), robust Z score vs plate; higher = stronger YAP/TEAD activation
# Details: 24 h
Compound,TEAD-luciferase reporter activity (compound concentration: 200 nM),TEAD-luciferase reporter activity (compound concentration: 2 uM),TEAD-luciferase reporter activity (compound concentration: 10 uM)
NCCc1ccc(OCCCS(=O)(=O)CCOCCc2cccc3ccccc23)c2[nH]c(=O)sc12,inactive: -0.496,inactive: -1.41,inactive: -1.4
CC(C(=O)O)c1ccc(Nc2ccccc2C(=O)O)cc1 (stereo not drawn),inactive: -1.28,inactive: 0.139,inactive: 1.24
O=C(O)C[C@H]1CC[C@H](c2ccc(-c3ccc(Nc4ccc(C(F)(F)F)nc4)cn3)cc2)CC1,inactive: -1.58,,inactive: 0.185
O=C(O)C[C@H]1CC[C@H](c2ccc(-c3ccc(Nc4ccc(C(F)(F)F)nc4)cn3)cc2)CC1 [Pradigastat],,inactive: -0.0791,
COC(=O)C1=C(C)NC(C)=C(C(=O)OC(C)(C)CN(C)CCC(c2ccccc2)c2ccccc2)C1c1cccc([N+](=O)[O-])c1 (stereo not drawn) [Lercanidipine Hydrochloride],inactive: 1.17,,inactive: 0.981
COC(=O)C1=C(C)NC(C)=C(C(=O)OC(C)(C)CN(C)CCC(c2ccccc2)c2ccccc2)C1c1cccc([N+](=O)[O-])c1 (stereo not drawn) [lercanidipine immediate release],,inactive: -1.94,
CCOc1ccc(-c2cc(C)cn2-c2ccc(S(N)(=O)=O)cc2)cc1,inactive: -0.0858,inactive: 0.786,inactive: -0.0817
C[C@]12C=CC(=O)C=C1CC[C@@H]1C2=CC[C@]2(C)[C@@H](C(=O)CN3CCN(c4cc(N5CCCC5)nc(N5CCCC5)n4)CC3)CC[C@@H]12,inactive: -0.635,inactive: -1.33,inactive: 0.245
CN1CC/C(=N\O)c2ccn(CCCCN3CCC(C(=O)c4ccc(F)cc4)CC3)c2C1=O,inactive: -1.13,inactive: 1.16,inactive: 0.874
O=C(NCCO)C1CCCN(c2nc(NCc3ccccn3)c3c(-c4ccccc4)csc3n2)C1 (stereo not drawn),inactive: -0.485,inactive: 2.75,inactive: -0.485
CN1CCc2c(-c3ccc(S(=O)(=O)N(C)C)cc3)cc3c(c2C1)NC(=O)/C3=N\OC(CCO)C(=O)[O-] (stereo not drawn),inactive: 2.69,inactive: -0.0969,inactive: 0.372
"C/C(=C(/CCOP(=O)(O)O)SC(=O)c1ccccc1)N(C=O)Cc1cnc(C)nc1N [benfotiamine, Alterix]",inactive: 2.58,,inactive: -0.857
C/C(=C(/CCOP(=O)(O)O)SC(=O)c1ccccc1)N(C=O)Cc1cnc(C)nc1N [benfotiamine],,inactive: -0.479,
CC(C)C(=O)N1Cc2ccccc2CC2(CCCCN2C)C1 (stereo not drawn),inactive: 1.41,,inactive: 0.497
CC(=O)NC(C)c1cc(Cl)ccc1C1CCN(C(=O)[C@@H]2CN(C(C)(C)C)C[C@H]2c2ccc(F)cc2F)CC1 (stereo partly drawn),inactive: 1.77,inactive: 1.03,inactive: 0.488
CC1(c2cccc3ccccc23)NC(=O)NC1=O (stereo not drawn),inactive: -0.587,inactive: -1.9,inactive: 3.77
Cc1c(-c2ccnn2C)cc(C(=O)NCc2ccc(S(C)(=O)=O)cn2)c(=O)n1-c1cccc(C(F)(F)F)c1 [Alvelestat],inactive: 0.882,inactive: -0.621,inactive: 0.968
O=C(NCC(=O)N1CC[C@H](N[C@H]2CC[C@@](O)(c3ccc(-c4ncccn4)cn3)CC2)C1)c1cccc(C(F)(F)F)c1,inactive: -1.45,inactive: 1.51,inactive: -0.814
Cc1[nH]cnc1CC1CCc2c(c3ccccc3n2C)C1=O (stereo not drawn),inactive: -0.452,inactive: -0.638,inactive: 1.8
O=C1CCC2(CCC(=O)c3ccccc32)C(=O)N1 (stereo not drawn),inactive: -0.267,inactive: -0.848,inactive: 1.76
O=[N+]([O-])c1ccc2c(c1)[C@H](O)[C@@H](N1CCN(c3cccc4c3OCCO4)CC1)C2,inactive: -1.18,inactive: -1.37,inactive: -0.282
CCOC(=O)C(CCc1ccccc1)NC1CCc2ccccc2N(CC(=O)O)C1=O (stereo not drawn) [benazepril],inactive: 1.75,inactive: 0.0437,inactive: -0.907
O=P([O-])([O-])[O-] [tri-Potassium orthophosphate],inactive: 0.271,inactive: -0.746,inactive: 1.28
Cn1cc(C(=O)O)c2ccc(N3CCC(OCc4c(-c5c(Cl)cccc5Cl)noc4C4CC4)CC3)cc21,inactive: 3.54,inactive: 0.033,inactive: -0.573
O=C1NCCCN1CCCNCC1CCc2ccccc2O1 (stereo not drawn),inactive: -0.528,inactive: -0.496,inactive: -0.49
CNc1nc2c(Cc3cccnc3)c(C)c(O)c(C)c2s1,inactive: 1.35,inactive: 0.00484,inactive: 1.48

# Four successive records already listed:
Compound,TEAD-luciferase reporter activity (compound concentration: 200 nM),TEAD-luciferase reporter activity (compound concentration: 2 uM),TEAD-luciferase reporter activity (compound concentration: 10 uM)
COC(=O)C1=C(C)NC(C)=C(C(=O)OC(C)(C)CN(C)CCC(c2ccccc2)c2ccccc2)C1c1cccc([N+](=O)[O-])c1 (stereo not drawn) [Lercanidipine Hydrochloride],inactive: 1.17,,inactive: 0.981
COC(=O)C1=C(C)NC(C)=C(C(=O)OC(C)(C)CN(C)CCC(c2ccccc2)c2ccccc2)C1c1cccc([N+](=O)[O-])c1 (stereo not drawn) [lercanidipine immediate release],,inactive: -1.94,
CCOc1ccc(-c2cc(C)cn2-c2ccc(S(N)(=O)=O)cc2)cc1,inactive: -0.0858,inactive: 0.786,inactive: -0.0817
C[C@]12C=CC(=O)C=C1CC[C@@H]1C2=CC[C@]2(C)[C@@H](C(=O)CN3CCN(c4cc(N5CCCC5)nc(N5CCCC5)n4)CC3)CC[C@@H]12,inactive: -0.635,inactive: -1.33,inactive: 0.245

# Additional records

Compound,TEAD-luciferase reporter activity (compound concentration: 200 nM),TEAD-luciferase reporter activity (compound concentration: 2 uM),TEAD-luciferase reporter activity (compound concentration: 10 uM)
CCOCc1nc2c(N)nc3ccccc3c2n1CC(C)(C)O [resiquimod],inactive: -0.662,inactive: -0.728,inactive: -1.04
COc1cc(/C=C2\CCCN([C@@H](C)c3ccc(F)cc3)C2=O)ccc1-n1cnc(C)c1,inactive: -0.721,inactive: 1.37,inactive: -0.871
"CC(=O)O[C@]1(C(C)=O)CC[C@H]2[C@@H]3C=C(Cl)C4=CC(=O)[C@@H]5C[C@@H]5[C@]4(C)[C@H]3CC[C@@]21C [cyproterone acetate, Barr]",inactive: 1.3,inactive: -0.411,inactive: -0.88
CO[C@]1(C(=O)N[C@@H]2CC[C@@]3(C)[C@@H](CC[C@@H]4[C@@H]3CC[C@]3(C)[C@@H]([C@H](C)CCCC(C)C)CC[C@@H]43)C2)C[C@H](O)[C@@H](NC(C)=O)C([C@H](O)[C@H](O)CO)O1 (stereo partly drawn) [coleneuramide],inactive: -1.22,inactive: -1.5,inactive: 0.907
NS(=O)(=O)c1ccc(Oc2ccc(NC(=O)N[C@H]3[C@@H]4COc5c(F)ccc(F)c5[C@@H]43)nc2)cc1,inactive: -1.65,inactive: 0.398,inactive: -1.44
O=C(Nc1cc(Cl)cc(Cl)c1O)c1c(O)c(Cl)cc(Cl)c1Cl,inactive: -2.78,inactive: -1.42,inactive: 1.45
COC(=O)c1cccc(CCN(C)Cc2ccccc2)c1,inactive: -0.646,inactive: 0.158,inactive: -0.347
Cc1ncc([N+](=O)[O-])n1CCCN1CCNCC1,inactive: -0.808,inactive: -0.533,inactive: 0.743
ClCCCN1CCN(c2ccc3ccccc3n2)CC1,inactive: 1.08,inactive: -0.535,inactive: 2.33
O=C(Nc1ccc(OC(F)(F)Cl)cc1)c1cnc(N2CC[C@@H](O)C2)c(-c2cc[nH]n2)c1,inactive: 1.46,inactive: -0.379,inactive: 0.655
COc1ccc(CC(=O)N2Cc3ccccc3CC23CCCN(C(C)=O)C3)cc1 (stereo not drawn),inactive: -0.866,,inactive: -0.87
CC(=O)N[C@@H](CCC(=O)C=[N+]=[N-])C(=O)O,,inactive: 0.0157,
CC(C)C[C@@H]1NC(=O)[C@H](Cc2ccccc2)NC(=O)[C@H](CCN)NC(=O)[C@@H](NC(=O)[C@H](CCN)NC(=O)[C@@H](NC(=O)[C@H](CCN)NC(=O)Nc2ccccc2Cl)[C@@H](C)O)CCNC(=O)[C@H]([C@@H](C)O)NC(=O)[C@H](CCN)NC(=O)[C@H](CCN)NC1=O,inactive: -0.992,inactive: -0.863,inactive: 0.242
COC(=O)OC[C@H]1O[C@@H](Oc2cc(C)cc(O)c2C(=O)CCc2ccc3occc3c2)[C@H](O)[C@@H](O)[C@@H]1O,inactive: 0.84,inactive: -0.952,inactive: 0.634
COC(=O)N1C[C@@H](c2ccc(OC)c(OC3CCCC3)c2)[C@](C)(C(C)=O)C1,inactive: -1.05,inactive: -0.687 and inactive: -1.02,inactive: 0.16
C=C(C)CNc1ccc(C(C)C(=O)O)cc1 (stereo not drawn) [alminoprofen],inactive: 0.44,inactive: 2.33,inactive: 0.43
CCc1nn2c(-c3c(OC)cc(COC)cc3OC)cccc2c1N(CC1CCOCC1)CC1CC1,active: 5.07,inactive: -0.769,inactive: 0.373
CC[O-]->[Ti]12(<-[O]=C(C)[CH-]C(=[O]->1)c1ccccc1)(<-[O]=C(C)[CH-]C(=[O]->2)c1ccccc1)<-[O-]CC [budotitane],inactive: -1.24,inactive: -0.729,inactive: 1.58
O=C([O-])[O-] [lithium carbonate],,inactive: 1.88,
O=C([O-])[O-] [carbonic acid],inactive: 0.00772,,inactive: 2.11
Oc1nc(O)c2nc3ccccc3nc2n1,inactive: -0.489,inactive: 0.457,active: 7.45
COC(=O)C1=C(C)NC(C)=C(C(=O)OC/C=C/c2ccccc2)C1c1cccc([N+](=O)[O-])c1 (stereo not drawn) [Pranidipine],inactive: -1.04,inactive: -2.03,inactive: 3.02
CC(C)(C)NCC(O)COc1cc(Cl)ccc1Cl (stereo not drawn) [cloranolol],inactive: -1.1,inactive: -0.282,inactive: 3.23
COc1ccc(CC(=O)N(C)C2CCc3ccccc3C2)cc1 (stereo not drawn),inactive: -0.0826,,
CN(C(=O)C(Cc1ccc(C(=N)NN)cc1)NS(=O)(=O)c1ccc2ccccc2c1)C1CCCC1 (stereo not drawn),inactive: -0.296,inactive: 0.519,inactive: 1.96
COc1ccc(C(=O)N2CCN(CCn3c(C(=O)N(C)c4cc(C)cc(C)n4)nc4ccccc43)CC2)cc1OC,inactive: 0.496,inactive: -0.488,inactive: -1.52
